Test results reported in patent publication US10287301B2 (Achillion Pharmaceuticals, Inc., priority 2015, dated 2019).
The match of structure and compound is tentative.

Chains of the proteins cited; added tags and fusions are not shown. Residues count along the entry.
UniProt P00746, 26-253 limits assumed: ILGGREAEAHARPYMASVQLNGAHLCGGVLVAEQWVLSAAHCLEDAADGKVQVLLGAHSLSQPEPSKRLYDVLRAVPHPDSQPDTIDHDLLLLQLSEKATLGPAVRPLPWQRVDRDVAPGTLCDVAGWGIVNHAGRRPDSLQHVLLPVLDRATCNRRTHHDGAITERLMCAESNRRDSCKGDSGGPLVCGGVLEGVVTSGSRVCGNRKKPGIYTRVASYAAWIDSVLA

Target: Human Factor D (Homo sapiens (Human), UniProt P00746)
Experiment: Human Factor D Assay
Type: biochemical
Conditions: read-out: IC50 (Stars)

CC(=O)c1nn(CC(=O)[C@@H]2C[C@H]3C[C@H]3N2C(=O)Nc2cccc(Br)n2)c2ccc(-c3cnc(C)nc3)cc12
IC50: > 10 µM
